Article PMC4330364
No constants are given. Whether binding was seen depends on the method and setting. Binding seen in cells or lysates may run through a third protein. Some results given as binding are weak or reduced against the parent protein; the word gives no strength. Blank lines part the entries; values can stand above or below the molecule they belong to.

The chains behind the UniProt entries cited, without tags or fusion partners.
UniProt O14980: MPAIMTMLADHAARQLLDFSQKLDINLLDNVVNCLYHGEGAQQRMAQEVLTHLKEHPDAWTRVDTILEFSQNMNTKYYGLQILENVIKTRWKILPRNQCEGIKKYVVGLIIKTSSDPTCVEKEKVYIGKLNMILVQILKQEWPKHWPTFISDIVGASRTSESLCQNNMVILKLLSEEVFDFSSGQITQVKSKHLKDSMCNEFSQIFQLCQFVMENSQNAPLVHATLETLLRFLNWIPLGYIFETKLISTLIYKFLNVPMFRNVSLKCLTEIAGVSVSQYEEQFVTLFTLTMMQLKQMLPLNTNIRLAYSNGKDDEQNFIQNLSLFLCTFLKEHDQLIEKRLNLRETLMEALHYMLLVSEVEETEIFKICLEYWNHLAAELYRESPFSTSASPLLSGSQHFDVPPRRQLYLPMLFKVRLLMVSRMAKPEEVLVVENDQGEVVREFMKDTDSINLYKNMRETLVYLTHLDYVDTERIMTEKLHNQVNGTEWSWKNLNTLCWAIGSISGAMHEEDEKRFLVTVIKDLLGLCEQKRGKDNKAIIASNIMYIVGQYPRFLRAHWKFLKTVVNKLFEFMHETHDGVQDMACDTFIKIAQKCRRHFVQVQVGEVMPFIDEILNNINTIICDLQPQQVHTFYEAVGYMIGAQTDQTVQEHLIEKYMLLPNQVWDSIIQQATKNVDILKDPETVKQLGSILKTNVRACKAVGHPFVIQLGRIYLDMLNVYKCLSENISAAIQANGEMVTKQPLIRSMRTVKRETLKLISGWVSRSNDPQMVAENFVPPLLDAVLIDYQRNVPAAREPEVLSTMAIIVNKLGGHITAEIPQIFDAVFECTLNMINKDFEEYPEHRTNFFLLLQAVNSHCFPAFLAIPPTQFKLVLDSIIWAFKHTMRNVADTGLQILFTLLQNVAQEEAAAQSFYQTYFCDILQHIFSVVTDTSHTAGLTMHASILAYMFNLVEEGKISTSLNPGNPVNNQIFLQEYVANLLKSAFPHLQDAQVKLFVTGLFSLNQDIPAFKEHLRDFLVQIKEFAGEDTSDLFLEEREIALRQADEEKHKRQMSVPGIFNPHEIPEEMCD
UniProt Q9HAV4: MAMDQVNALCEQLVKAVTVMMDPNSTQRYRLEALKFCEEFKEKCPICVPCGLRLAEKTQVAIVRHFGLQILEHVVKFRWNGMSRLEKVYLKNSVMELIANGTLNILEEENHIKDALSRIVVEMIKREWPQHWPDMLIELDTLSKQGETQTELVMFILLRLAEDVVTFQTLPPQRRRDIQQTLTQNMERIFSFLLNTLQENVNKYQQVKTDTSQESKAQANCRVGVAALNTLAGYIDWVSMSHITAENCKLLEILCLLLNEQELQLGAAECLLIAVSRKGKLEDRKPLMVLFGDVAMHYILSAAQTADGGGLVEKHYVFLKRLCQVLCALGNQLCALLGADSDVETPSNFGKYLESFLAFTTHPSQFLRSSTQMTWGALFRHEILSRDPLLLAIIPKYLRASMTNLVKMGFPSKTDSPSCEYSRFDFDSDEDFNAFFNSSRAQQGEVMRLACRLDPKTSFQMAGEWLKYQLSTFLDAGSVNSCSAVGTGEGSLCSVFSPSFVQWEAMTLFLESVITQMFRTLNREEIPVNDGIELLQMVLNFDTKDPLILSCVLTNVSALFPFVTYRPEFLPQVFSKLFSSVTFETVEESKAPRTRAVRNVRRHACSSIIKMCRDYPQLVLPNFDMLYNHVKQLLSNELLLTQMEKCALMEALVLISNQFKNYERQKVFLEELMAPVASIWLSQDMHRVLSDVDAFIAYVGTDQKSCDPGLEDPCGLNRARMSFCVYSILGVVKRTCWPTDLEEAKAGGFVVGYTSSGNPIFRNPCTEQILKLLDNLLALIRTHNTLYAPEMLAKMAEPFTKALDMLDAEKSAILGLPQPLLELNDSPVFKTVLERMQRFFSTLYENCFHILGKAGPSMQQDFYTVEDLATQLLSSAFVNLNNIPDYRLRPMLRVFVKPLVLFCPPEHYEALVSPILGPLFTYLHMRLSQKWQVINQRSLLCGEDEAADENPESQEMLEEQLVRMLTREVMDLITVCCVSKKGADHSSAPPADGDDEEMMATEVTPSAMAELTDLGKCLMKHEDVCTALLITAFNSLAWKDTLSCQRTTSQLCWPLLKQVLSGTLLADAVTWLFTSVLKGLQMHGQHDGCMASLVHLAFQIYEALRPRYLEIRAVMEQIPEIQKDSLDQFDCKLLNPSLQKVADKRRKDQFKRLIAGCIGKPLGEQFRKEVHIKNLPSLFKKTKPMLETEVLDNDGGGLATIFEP
UniProt Q9H814: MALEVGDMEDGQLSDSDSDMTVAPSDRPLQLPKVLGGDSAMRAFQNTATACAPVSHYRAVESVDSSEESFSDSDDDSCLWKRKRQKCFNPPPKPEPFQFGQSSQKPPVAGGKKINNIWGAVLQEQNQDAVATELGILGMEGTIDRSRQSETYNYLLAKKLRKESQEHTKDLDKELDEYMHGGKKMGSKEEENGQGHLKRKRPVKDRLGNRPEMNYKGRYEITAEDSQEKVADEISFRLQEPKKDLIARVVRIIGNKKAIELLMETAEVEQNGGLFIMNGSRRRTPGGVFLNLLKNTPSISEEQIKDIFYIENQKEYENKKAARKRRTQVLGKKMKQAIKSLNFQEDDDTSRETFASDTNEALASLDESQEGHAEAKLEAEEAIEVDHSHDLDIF

What was measured:
[1] = molecular target: T1, Regulator of Telomere ELongation helicase 1 (RTEL1), endogenous in HeLa cells (human (endogenous in HeLa)) (UniProt Q9NZ71); experiment: co-IP; anti-RTEL1 antibodies, soluble lysate of unperturbed HeLa cells (endogenous levels of all proteins); NP40 lysis buffer (50 mM Tris-HCl pH 6.8, 150 mM NaCl, 1% NP-40); western blot
T1 sequence: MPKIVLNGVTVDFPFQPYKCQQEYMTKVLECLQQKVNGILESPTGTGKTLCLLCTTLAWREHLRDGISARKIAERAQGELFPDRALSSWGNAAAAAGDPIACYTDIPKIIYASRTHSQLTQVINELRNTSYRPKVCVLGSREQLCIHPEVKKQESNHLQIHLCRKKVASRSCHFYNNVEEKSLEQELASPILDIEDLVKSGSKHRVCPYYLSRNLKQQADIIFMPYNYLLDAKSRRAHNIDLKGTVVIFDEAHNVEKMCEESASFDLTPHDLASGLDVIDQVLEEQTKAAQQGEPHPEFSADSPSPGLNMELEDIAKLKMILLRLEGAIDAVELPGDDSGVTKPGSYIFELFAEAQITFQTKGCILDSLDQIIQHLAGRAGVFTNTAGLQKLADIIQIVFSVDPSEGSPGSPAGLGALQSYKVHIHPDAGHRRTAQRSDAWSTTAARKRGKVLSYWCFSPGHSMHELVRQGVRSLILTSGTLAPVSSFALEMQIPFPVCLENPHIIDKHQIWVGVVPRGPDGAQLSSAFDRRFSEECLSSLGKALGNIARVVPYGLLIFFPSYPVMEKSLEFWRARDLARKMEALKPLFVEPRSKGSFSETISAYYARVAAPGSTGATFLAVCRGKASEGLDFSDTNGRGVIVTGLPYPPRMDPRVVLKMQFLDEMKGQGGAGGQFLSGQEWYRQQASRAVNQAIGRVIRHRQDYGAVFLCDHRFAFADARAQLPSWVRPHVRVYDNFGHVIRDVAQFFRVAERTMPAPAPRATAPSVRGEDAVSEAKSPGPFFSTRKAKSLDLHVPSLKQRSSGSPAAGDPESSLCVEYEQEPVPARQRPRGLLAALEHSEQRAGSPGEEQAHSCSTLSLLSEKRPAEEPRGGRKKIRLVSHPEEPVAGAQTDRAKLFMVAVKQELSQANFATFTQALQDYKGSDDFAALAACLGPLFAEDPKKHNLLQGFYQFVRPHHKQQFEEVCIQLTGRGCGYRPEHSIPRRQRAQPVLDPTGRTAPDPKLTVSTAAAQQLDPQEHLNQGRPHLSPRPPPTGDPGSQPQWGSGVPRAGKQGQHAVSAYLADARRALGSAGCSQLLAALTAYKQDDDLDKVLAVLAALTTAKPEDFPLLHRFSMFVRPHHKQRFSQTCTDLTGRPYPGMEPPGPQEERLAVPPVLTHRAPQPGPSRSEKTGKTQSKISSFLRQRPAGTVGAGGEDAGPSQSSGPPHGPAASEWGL

[2] = molecular target: XPO1 (CRM1) (human (endogenous in 293T and HeLa)) (UniProt O14980); experiment: co-IP; antibodies against XPO1, blot for PHAX (Supplementary Figure S1b); cell line not stated
[3] = molecular target: T2, XPOT (human (endogenous in 293T and HeLa)) (UniProt O43592); experiment: co-IP; antibodies against XPO1, XPO5 and XPOT, soluble extracts of 293T overexpressing RTEL1_(iso6) treated with RNase A (0.1 ug/ul, 30 min, 37°C); NP40 lysis buffer; immunoprecipitates analysed with anti-RTEL1 antibody
T2 sequence: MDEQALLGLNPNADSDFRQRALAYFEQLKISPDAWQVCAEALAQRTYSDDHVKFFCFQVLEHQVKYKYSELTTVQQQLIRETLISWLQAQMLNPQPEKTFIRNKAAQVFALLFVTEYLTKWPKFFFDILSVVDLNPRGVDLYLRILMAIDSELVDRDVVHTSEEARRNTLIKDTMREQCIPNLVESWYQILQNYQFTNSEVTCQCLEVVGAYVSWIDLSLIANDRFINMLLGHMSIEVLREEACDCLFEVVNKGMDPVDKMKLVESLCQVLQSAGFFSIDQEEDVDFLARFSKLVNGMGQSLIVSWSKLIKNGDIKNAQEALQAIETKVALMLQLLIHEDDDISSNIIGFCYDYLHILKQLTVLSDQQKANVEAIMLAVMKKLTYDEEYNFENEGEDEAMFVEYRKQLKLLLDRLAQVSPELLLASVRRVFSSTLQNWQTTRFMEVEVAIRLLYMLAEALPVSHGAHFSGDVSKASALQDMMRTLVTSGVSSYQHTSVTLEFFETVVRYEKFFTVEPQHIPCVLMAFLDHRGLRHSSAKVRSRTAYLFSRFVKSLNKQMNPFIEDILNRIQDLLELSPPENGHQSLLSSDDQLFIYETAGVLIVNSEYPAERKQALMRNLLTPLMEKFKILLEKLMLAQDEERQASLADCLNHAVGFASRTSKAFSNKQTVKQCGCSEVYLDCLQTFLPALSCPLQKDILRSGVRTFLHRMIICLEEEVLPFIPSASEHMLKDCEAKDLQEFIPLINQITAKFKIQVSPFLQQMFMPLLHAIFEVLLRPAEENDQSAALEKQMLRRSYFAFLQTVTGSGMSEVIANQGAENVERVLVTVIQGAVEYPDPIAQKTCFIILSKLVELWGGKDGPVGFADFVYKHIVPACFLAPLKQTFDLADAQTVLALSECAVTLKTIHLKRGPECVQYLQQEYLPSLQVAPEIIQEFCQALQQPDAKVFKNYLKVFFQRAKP

[4] = molecular target: XPO1 (CRM1) (human (endogenous in 293T and HeLa)) (UniProt O14980); experiment: as above
[5] = molecular target: XPO5 (human (endogenous in 293T and HeLa)) (UniProt Q9HAV4); experiment: as above

Molecule: XPO1 (CRM1) (from UniProt O14980 1-1071)
binding [1]: binds

Molecule: phosphorylated adaptor for RNA export (PHAX) (from UniProt Q9H814 1-394)
binding [2]: binds

Second part, the molecule after the results:

binding [1]: binds
Molecule: XPO5 (from UniProt Q9HAV4 1-1204)

binding [3]: binds
binding [4]: binds
binding [5]: binds
B1: Regulator of Telomere ELongation helicase 1 (RTEL1), isoform 6, stably overexpressed in 293T cells (protein, UniProt Q9NZ71-6 1-1300)
chain: MPKIVLNGVTVDFPFQPYKCQQEYMTKVLECLQQKVNGILESPTGTGKTLCLLCTTLAWREHLRDGISARKIAERAQGELFPDRALSSWGNAAAAAGDPIACYTDIPKIIYASRTHSQLTQVINELRNTSYRPKVCVLGSREQLCIHPEVKKQESNHLQIHLCRKKVASRSCHFYNNVEEKSLEQELASPILDIEDLVKSGSKHRVCPYYLSRNLKQQADIIFMPYNYLLDAKSRRAHNIDLKGTVVIFDEAHNVEKMCEESASFDLTPHDLASGLDVIDQVLEEQTKAAQQGEPHPEFSADSPSPGLNMELEDIAKLKMILLRLEGAIDAVELPGDDSGVTKPGSYIFELFAEAQITFQTKGCILDSLDQIIQHLAGRAGVFTNTAGLQKLADIIQIVFSVDPSEGSPGSPAGLGALQSYKVHIHPDAGHRRTAQRSDAWSTTAARKRGKVLSYWCFSPGHSMHELVRQGVRSLILTSGTLAPVSSFALEMQIPFPVCLENPHIIDKHQIWVGVVPRGPDGAQLSSAFDRRFSEECLSSLGKALGNIARVVPYGLLIFFPSYPVMEKSLEFWRARDLARKMEALKPLFVEPRSKGSFSETISAYYARVAAPGSTGATFLAVCRGKASEGLDFSDTNGRGVIVTGLPYPPRMDPRVVLKMQFLDEMKGQGGAGGQFLSGQEWYRQQASRAVNQAIGRVIRHRQDYGAVFLCDHRFAFADARAQLPSWVRPHVRVYDNFGHVIRDVAQFFRVAERTMPAPAPRATAPSVRGEDAVSEAKSPGPFFSTRKAKSLDLHVPSLKQRSSGSPAAGDPESSLCVEYEQEPVPARQRPRGLLAALEHSEQRAGSPGEEQAHSCSTLSLLSEKRPAEEPRGGRKKIRLVSHPEEPVAGAQTDRAKLFMVAVKQELSQANFATFTQALQDYKGSDDFAALAACLGPLFAEDPKKHNLLQGFYQFVRPHHKQQFEEVCIQLTGRGCGYRPEHSIPRRQRAQPVLDPTGRTAPDPKLTVSTAAAQQLDPQEHLNQGRPHLSPRPPPTGDPGSQPQWGSGVPRAGKQGQHAVSAYLADARRALGSAGCSQLLAALTAYKQDDDLDKVLAVLAALTTAKPEDFPLLHRFSMFVRPHHKQRFSQTCTDLTGRPYPGMEPPGPQEERLAVPPVLTHRAPQPGPSRSEKTGKTQSKISSFLRQRPAGTVGAGGEDAGPSQSSGPPHGPAASEWGEPHGRDIAGQQATGAPGGPLSAGCVCQGCGAEDVVPFQCPACDFQRCQACWQRHLQASRMCPACHTASRKQSVMQVFWPEPQ

binding [1]: binds
B2: XPOT (protein, UniProt O43592 1-962)
chain: MDEQALLGLNPNADSDFRQRALAYFEQLKISPDAWQVCAEALAQRTYSDDHVKFFCFQVLEHQVKYKYSELTTVQQQLIRETLISWLQAQMLNPQPEKTFIRNKAAQVFALLFVTEYLTKWPKFFFDILSVVDLNPRGVDLYLRILMAIDSELVDRDVVHTSEEARRNTLIKDTMREQCIPNLVESWYQILQNYQFTNSEVTCQCLEVVGAYVSWIDLSLIANDRFINMLLGHMSIEVLREEACDCLFEVVNKGMDPVDKMKLVESLCQVLQSAGFFSIDQEEDVDFLARFSKLVNGMGQSLIVSWSKLIKNGDIKNAQEALQAIETKVALMLQLLIHEDDDISSNIIGFCYDYLHILKQLTVLSDQQKANVEAIMLAVMKKLTYDEEYNFENEGEDEAMFVEYRKQLKLLLDRLAQVSPELLLASVRRVFSSTLQNWQTTRFMEVEVAIRLLYMLAEALPVSHGAHFSGDVSKASALQDMMRTLVTSGVSSYQHTSVTLEFFETVVRYEKFFTVEPQHIPCVLMAFLDHRGLRHSSAKVRSRTAYLFSRFVKSLNKQMNPFIEDILNRIQDLLELSPPENGHQSLLSSDDQLFIYETAGVLIVNSEYPAERKQALMRNLLTPLMEKFKILLEKLMLAQDEERQASLADCLNHAVGFASRTSKAFSNKQTVKQCGCSEVYLDCLQTFLPALSCPLQKDILRSGVRTFLHRMIICLEEEVLPFIPSASEHMLKDCEAKDLQEFIPLINQITAKFKIQVSPFLQQMFMPLLHAIFEVLLRPAEENDQSAALEKQMLRRSYFAFLQTVTGSGMSEVIANQGAENVERVLVTVIQGAVEYPDPIAQKTCFIILSKLVELWGGKDGPVGFADFVYKHIVPACFLAPLKQTFDLADAQTVLALSECAVTLKTIHLKRGPECVQYLQQEYLPSLQVAPEIIQEFCQALQQPDAKVFKNYLKVFFQRAKP
